Assay results as given in paper PMC4415780.

By UniProt entry, the sequences of proteins in these tests, tags left out. Where a name states a change or a piece, a line headed by the entry shows the natural chain unless it says otherwise.
UniProt Q57ZX7: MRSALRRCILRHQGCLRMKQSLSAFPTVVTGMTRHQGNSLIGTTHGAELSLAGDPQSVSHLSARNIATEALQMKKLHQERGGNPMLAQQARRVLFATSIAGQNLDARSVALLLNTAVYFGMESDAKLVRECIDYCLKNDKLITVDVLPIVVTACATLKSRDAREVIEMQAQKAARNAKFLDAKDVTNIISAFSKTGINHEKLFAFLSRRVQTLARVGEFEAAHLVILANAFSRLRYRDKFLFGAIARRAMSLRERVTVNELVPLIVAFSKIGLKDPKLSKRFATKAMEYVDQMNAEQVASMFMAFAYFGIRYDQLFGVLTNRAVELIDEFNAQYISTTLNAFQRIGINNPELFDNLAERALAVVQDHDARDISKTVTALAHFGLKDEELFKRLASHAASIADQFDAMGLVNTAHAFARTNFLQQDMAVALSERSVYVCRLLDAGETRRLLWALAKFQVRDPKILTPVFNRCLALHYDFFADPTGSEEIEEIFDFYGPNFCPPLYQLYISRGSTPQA
UniProt Q586X1: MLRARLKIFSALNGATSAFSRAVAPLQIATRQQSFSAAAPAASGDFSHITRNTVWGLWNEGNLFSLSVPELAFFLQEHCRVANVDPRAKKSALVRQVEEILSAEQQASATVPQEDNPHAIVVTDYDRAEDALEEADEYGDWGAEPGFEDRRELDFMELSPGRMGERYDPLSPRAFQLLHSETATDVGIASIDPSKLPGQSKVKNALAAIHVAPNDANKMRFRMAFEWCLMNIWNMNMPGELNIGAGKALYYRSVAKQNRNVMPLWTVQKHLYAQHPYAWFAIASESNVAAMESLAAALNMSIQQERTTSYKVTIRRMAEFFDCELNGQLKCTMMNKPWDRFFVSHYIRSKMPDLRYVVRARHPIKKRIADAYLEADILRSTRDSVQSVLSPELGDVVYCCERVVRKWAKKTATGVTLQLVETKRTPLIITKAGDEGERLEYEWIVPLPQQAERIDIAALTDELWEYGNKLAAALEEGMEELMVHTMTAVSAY

Tests used:
[1] = molecular target: MRB3010 (Trypanosoma brucei (endogenous in procyclic Lister 427 29-13)) (UniProt Q57ZX7); experiment: co-IP; REH2 and 3010 IPs from mitochondrial lysates of RNAP knockdown (RNA-depleted) cells, without nuclease treatment; western blot
[2] = molecular target: MRB3010 (Trypanosoma brucei (endogenous in procyclic Lister 427 29-13)) (UniProt Q57ZX7); experiment: co-IP; REH2 and 3010 IPs from mitochondrial lysates of RNAP knockdown cells, IP sample treated with a cocktail of nucleases (RNases A and T1, micrococcal nuclease); western blot
[3] = molecular target: MRB3010 (Trypanosoma brucei (endogenous in procyclic Lister 427 29-13)) (UniProt Q57ZX7); experiment: co-IP; affinity-purified peptide antibodies to REH2 or MRB3010 on Dynabeads Protein A; ~2 mg pre-cleared mitochondrial extract (untreated cells, or REH2 RNAi at 0 or 4 days); washes 200 mM NaCl, 1 mM EDTA, 10 mM MgCl2, 25 mM Tris pH 8; western blot

Measured: binding

GAP1 (from UniProt Q586X1)
binds: all assays above

Results are given in words; binding and its absence hold for the method and conditions named. Binding seen in cells or lysates may run through a third protein. Binding calls can cover weak binding; strength is not graded here.
